The other results are listed elsewhere or left out.
Legend:
Assay in all cases: log2 fold change, soluble protein after heating vs DMSO (PISA); higher = thermal stabilisation; K562 lysate, 10 uM; active = over 0.2 and 3.5 SD of the protein, either way, in both replicates (recomputed)
[1] = compound: C1=CC2=NC=CN=C2C=C1/C=C/3\C(=O)NC(=O)S3
Outline: (§1)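 Soluble protein was defined as the supernatant remaining after 21,000xg for 90 min, following pooling of heated aliquots and adjustment to 0.5% NP-40 at 4°C. Before that, crude K562 extract at 1 mg/mL protein in PBS pH 7.4 with 1 mM MgCl2 was treated with 10 μM compound for 30 min and heated for 3 min across 48°C-58°C. Quantification used TMTpro 16plex LC-MS/MS with channel sums equalised, and values are log-two fold changes in thermal stability relative to solvent controls from duplicates.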

By UniProt entry, the sequences of proteins in these tests, tags left out. Where a name states a change or a piece, a line headed by the entry shows the natural chain unless it says otherwise.
UniProt Q15080: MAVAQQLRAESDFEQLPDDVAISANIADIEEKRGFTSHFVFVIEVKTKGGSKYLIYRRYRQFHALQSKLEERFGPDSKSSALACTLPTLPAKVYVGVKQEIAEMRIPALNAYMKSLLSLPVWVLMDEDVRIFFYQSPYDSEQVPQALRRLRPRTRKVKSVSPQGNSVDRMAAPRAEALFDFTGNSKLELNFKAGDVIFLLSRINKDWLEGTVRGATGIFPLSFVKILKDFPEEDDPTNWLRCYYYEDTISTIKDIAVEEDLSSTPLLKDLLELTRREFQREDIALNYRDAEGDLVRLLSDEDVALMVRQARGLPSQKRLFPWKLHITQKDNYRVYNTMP
UniProt P01106: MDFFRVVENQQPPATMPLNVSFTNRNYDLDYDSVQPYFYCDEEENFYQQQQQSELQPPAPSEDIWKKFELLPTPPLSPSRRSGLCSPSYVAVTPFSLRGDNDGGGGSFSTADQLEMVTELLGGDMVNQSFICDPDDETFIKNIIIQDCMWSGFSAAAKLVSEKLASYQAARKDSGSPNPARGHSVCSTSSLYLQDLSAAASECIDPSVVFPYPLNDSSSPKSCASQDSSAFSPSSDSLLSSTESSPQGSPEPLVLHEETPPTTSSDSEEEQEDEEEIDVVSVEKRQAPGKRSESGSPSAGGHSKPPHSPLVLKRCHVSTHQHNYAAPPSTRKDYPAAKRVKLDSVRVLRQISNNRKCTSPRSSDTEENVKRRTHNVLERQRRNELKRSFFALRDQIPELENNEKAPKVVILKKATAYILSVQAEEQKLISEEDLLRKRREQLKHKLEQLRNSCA
UniProt P19105: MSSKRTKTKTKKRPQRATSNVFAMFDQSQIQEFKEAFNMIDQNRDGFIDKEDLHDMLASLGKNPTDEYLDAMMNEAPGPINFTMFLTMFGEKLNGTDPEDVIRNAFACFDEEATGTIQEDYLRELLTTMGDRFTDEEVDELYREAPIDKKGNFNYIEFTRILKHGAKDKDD
UniProt Q8NI08: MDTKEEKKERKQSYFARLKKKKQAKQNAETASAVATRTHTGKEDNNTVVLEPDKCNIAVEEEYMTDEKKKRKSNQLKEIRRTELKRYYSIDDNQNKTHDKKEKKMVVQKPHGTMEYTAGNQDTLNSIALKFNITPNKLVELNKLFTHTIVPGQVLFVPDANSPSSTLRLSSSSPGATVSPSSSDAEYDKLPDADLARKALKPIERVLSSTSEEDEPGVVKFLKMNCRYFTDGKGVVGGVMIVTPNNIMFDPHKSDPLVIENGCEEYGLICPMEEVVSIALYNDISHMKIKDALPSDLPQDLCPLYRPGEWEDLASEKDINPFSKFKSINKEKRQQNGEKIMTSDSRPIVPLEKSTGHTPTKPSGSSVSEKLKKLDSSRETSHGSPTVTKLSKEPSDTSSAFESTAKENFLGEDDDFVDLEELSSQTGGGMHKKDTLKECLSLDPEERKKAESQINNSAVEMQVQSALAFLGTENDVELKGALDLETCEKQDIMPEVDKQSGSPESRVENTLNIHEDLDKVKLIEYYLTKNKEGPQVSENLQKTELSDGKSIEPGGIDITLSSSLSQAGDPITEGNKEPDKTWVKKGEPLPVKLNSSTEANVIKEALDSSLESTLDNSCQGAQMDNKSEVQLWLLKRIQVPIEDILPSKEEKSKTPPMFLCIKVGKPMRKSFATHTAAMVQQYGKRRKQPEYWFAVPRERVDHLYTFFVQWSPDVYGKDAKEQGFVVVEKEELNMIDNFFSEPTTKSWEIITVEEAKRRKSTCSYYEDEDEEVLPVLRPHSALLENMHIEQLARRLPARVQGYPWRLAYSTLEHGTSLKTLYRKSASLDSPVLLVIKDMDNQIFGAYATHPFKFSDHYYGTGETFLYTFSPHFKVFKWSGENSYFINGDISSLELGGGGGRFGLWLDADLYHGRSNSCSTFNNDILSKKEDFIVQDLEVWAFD
UniProt Q93015: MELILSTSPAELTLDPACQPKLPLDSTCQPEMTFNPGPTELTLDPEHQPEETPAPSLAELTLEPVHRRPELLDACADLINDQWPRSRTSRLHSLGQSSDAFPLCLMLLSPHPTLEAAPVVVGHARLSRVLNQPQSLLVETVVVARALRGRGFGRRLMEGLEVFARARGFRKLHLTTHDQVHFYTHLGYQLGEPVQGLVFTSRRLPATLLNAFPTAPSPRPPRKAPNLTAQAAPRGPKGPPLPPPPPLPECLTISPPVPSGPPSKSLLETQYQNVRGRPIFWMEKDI
UniProt Q969V3: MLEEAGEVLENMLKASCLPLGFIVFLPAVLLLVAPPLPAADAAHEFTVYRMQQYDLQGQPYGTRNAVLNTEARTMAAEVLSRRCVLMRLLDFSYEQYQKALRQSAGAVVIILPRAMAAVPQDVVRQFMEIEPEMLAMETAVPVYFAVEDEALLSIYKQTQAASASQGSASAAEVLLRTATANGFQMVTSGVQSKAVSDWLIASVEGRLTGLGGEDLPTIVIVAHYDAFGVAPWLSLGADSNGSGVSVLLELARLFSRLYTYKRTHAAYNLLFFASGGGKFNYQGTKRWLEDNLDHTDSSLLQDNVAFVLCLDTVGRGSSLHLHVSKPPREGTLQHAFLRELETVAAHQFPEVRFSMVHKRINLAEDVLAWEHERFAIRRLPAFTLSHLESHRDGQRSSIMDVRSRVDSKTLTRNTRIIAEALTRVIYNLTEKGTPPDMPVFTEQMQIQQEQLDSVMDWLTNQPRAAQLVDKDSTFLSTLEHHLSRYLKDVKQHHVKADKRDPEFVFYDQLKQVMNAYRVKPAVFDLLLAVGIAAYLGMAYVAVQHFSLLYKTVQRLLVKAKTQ
UniProt Q9HCH0: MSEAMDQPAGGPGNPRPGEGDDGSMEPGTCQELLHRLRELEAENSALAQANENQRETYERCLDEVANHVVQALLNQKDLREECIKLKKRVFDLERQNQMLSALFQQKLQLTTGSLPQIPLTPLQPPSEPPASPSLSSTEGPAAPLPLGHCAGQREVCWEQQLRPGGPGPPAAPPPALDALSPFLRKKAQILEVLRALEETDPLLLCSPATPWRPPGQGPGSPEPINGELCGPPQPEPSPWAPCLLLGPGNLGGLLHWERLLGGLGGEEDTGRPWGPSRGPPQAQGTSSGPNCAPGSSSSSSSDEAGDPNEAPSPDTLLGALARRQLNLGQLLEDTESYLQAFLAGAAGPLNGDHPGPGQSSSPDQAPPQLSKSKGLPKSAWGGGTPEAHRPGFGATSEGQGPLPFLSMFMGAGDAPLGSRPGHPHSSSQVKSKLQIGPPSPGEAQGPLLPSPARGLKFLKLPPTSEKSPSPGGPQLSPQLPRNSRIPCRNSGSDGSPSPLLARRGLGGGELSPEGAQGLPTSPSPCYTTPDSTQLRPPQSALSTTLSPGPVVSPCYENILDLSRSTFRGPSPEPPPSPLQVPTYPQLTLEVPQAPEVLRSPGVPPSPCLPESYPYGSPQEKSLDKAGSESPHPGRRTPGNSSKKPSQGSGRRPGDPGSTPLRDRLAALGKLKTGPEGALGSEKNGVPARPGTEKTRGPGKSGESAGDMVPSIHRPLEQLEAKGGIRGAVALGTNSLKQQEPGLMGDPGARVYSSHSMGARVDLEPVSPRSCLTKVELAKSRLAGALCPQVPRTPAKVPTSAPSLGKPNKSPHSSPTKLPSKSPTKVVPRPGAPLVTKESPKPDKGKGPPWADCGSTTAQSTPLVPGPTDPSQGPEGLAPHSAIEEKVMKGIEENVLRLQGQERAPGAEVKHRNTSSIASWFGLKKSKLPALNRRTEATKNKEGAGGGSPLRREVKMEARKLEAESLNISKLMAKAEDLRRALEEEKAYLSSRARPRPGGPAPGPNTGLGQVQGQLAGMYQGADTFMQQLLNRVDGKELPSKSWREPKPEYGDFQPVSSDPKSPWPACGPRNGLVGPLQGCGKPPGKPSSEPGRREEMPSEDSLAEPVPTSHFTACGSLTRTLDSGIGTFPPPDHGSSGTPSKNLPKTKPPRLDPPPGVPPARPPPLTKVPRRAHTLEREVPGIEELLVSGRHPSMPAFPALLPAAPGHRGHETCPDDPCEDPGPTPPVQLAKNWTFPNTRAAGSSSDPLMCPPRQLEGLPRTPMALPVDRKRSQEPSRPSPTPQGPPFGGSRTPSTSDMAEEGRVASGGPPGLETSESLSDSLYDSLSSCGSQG
UniProt B0I1T2: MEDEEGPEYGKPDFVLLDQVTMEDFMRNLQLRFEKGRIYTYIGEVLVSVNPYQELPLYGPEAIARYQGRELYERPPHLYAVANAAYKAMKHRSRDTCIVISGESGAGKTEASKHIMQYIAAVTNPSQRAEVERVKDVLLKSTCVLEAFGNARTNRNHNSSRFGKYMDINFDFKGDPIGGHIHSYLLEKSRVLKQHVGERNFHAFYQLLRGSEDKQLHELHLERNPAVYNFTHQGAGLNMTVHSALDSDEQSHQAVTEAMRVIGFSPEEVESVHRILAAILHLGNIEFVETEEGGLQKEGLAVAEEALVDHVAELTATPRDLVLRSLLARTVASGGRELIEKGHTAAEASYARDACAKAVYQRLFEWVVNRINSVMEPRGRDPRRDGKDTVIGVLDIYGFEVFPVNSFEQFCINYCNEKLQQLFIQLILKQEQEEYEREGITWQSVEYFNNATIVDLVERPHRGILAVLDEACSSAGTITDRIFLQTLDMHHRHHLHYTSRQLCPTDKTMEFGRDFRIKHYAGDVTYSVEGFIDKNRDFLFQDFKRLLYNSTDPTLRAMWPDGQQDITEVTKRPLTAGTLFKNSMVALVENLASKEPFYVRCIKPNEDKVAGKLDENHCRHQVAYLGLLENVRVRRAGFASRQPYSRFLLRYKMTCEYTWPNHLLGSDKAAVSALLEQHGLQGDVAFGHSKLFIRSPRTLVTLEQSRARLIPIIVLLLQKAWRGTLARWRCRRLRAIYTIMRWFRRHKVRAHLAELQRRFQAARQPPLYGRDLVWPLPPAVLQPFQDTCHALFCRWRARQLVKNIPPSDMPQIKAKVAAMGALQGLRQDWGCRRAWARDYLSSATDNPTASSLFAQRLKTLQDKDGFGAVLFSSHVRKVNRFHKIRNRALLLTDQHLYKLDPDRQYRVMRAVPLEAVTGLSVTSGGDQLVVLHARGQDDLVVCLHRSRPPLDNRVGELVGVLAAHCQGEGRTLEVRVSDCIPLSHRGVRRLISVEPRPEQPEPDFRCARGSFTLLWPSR
UniProt O15049: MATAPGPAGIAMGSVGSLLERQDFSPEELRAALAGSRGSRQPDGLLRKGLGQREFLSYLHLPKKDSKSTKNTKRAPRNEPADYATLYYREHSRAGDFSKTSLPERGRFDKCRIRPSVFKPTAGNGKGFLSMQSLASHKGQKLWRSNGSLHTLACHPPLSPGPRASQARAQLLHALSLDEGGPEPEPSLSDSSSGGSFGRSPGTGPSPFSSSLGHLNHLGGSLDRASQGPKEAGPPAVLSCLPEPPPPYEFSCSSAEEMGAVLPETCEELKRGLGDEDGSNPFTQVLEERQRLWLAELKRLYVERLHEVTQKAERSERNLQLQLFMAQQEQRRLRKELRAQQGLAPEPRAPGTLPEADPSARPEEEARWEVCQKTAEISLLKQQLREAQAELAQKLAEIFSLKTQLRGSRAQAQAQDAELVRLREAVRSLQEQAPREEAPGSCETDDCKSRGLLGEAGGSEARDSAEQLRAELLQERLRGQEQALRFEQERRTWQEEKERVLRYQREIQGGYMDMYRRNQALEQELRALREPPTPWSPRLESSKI
UniProt P49321, whole entry, looked up: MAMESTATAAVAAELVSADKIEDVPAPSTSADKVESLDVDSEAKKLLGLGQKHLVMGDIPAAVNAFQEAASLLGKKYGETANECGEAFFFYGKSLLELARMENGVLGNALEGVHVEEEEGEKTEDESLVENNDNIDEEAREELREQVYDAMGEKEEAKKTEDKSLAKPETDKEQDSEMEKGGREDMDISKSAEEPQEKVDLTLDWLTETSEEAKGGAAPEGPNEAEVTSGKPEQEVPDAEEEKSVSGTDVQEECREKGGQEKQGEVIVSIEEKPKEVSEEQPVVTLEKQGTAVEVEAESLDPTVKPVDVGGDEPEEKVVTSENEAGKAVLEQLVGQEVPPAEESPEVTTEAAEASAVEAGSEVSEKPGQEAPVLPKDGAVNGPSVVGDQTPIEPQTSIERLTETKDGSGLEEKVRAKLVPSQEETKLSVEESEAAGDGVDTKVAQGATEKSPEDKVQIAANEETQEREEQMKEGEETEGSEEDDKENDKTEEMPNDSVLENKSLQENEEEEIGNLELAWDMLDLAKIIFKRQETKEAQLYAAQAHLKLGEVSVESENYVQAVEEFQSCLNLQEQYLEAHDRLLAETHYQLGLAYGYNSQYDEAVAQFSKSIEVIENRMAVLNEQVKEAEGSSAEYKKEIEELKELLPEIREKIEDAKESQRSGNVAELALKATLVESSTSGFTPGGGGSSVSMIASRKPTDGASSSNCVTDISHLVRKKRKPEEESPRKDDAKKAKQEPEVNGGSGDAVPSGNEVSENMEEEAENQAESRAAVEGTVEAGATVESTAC

[2] = compound: C1CCN(C1)C(=O)NC2=CC=CC(=C2)NC3=NC=C(C(=N3)NCCC4=CN=CN4)Br
Outline: as §1

[3] = compound: C1CN(CCC1(CC2=CC=C(C=C2)Cl)N)C3=NC=NC4=C3C=CN4
Outline: as §1

ibrutinib = compound: C=CC(=O)N1CCC[C@@H](n2nc(-c3ccc(Oc4ccccc4)cc3)c3c(N)ncnc32)C1 [ibrutinib]
Outline: as §1

[4] = compound: CC1=C(C=C(C=C1)NC(=O)C2=CC(=CC=C2)C(C)(C)C#N)NC3=CC4=C(C=C3)N=CN(C4=O)C
Outline: as §1

erlotinib = compound: C#Cc1cccc(Nc2ncnc3cc(OCCOC)c(OCCOC)cc23)c1 [erlotinib]
Outline: as §1

[5] = compound: C1=CC(=CC=C1C2=NC3=C(N2)C=C(C=C3)C(=O)N)OC4=CC=C(C=C4)Cl
Outline: as §1

[6] = compound: CC(=O)c1cnc2ccc(-c3cc(Cl)c(O)c(Cl)c3)nc2c1N[C@H]1CC[C@H](CN(C)C)CC1
Outline: as §1

[7] = compound: CC(C)C1=C2N=C(C=C(N2N=C1)NCC3=CC=CC=C3)NCCCCCCN
Outline: as §1

[8] = compound: CC1=CC=C(C=C1)SC2=C3C=C(SC3=CN=C2)C(=O)N
Outline: as §1

[9] = compound: C1=CC=C(C=C1)C2=NC(=C(N2)C3=CC=NC=C3)C4=CC(=C(C=C4)Cl)O
Outline: as §1

IRAK-1-4 Inhibitor I = compound: C1COCCN1CCN2C3=CC=CC=C3N=C2NC(=O)C4=CC(=CC=C4)[N+](=O)[O-] [IRAK-1-4 Inhibitor I]
Outline: as §1

ralimetinib = compound: CC(C)(C)Cn1c(N)nc2ccc(-c3[nH]c(C(C)(C)C)nc3-c3ccc(F)cc3)nc21 [ralimetinib]
Outline: as §1

[10] = compound: CC(C)(O)CC(=O)NCCn1ccc2ncnc(Nc3ccc(Oc4cccc(C(F)(F)F)c4)c(Cl)c3)c21
Outline: as §1

[11] = compound: CC1=C(C(CC(=O)N1)C2=CC=C(C=C2)C(F)(F)F)C(=O)NC3=C(C=C4C(=C3)C=NN4)F
Outline: as §1

[12] = compound: CC1=C(C=C(C=C1)NC(=O)C2=CC(=CC=C2)N(C)C)NC(=O)C3=CC=C(C=C3)O
Outline: as §1

[13] = compound: CC1=C(C2=C(C=C1)C(=O)C3=CC=CC=C3N2CCCN)C
Outline: as §1

[14] = compound: C/C(=N\NC(=O)C1=CC(=CC=C1)S(=O)(=O)N2CCOCC2)/C3=C(C=CC(=C3)Cl)O
Outline: as §1

[15] = compound: C1=CC2=C(C=CC(=C2)/C=C\3/C(=O)NC(=NCC4=CC=CS4)S3)N=C1
Outline: as §1

[16] = compound: C1=CC=C2C(=C1)C3=NNC4=CC=CC(=C43)C2=O
Outline: as §1

Measured: log2 fold change

NCF4 (UniProt Q15080)
inactive: [1] 0.019 | [2] -0.01 | [3] 0.052 | ibrutinib 0.164 | [4] 0.074

NAMPT (UniProt C9JF35)
inactive: erlotinib 0.014 | [5] -0.054 | [6] -0.034 | [7] -0.019 | [8] -0.039

MYLK3 (UniProt Q32MK0)
inactive: erlotinib 0.184 | [5] 0.036 | [1] -0.089 | [9] 0.17 | [2] -0.204 | [3] 0.18 | IRAK-1-4 Inhibitor I -0.051 | ibrutinib 0.088 | [6] -0.058 | ralimetinib 0.04 | [10] 0.026 | [7] 0.081 | [11] 0.089 | [4] -0.021 | [12] 0.168 | [8] 0.267

MYC isoform 2 (UniProt P01106)
inactive: [9] 0.084 | IRAK-1-4 Inhibitor I 0.033 | ralimetinib 0.063 | [10] -0.081 | [11] 0.01 | [12] -0.011

MYL12A (UniProt P19105)
inactive: erlotinib 0.027 | [5] 0.078 | [7] 0.011

MYH2 (UniProt Q9UKX2)
inactive: [1] 0.697 | ibrutinib 0.761 | [13] 0.165

NACA (UniProt F8VNW4)
inactive: [6] -0.301 | [8] 0.128

Pulled one by one from the list above, 2 records:
MYC isoform 2 (UniProt P01106)
inactive: [9] 0.084 | IRAK-1-4 Inhibitor I 0.033 | ralimetinib 0.063 | [10] -0.081 | [11] 0.01 | [12] -0.011

MYL12A (UniProt P19105)
inactive: erlotinib 0.027 | [5] 0.078 | [7] 0.011

Remaining list, next part.

NCOA7 isoform 2 (UniProt Q8NI08)
inactive: [6] -0.083 | [13] 0.019 | [8] -0.061

NAA80 isoform 2 (UniProt Q93015)
inactive: erlotinib 0.15 | [5] 0.155 | [9] 0.035 | IRAK-1-4 Inhibitor I 0.199 | ralimetinib 0.018 | [10] -0.073 | [7] -0.103 | [11] 0.087 | [12] 0.059

MYH7 (UniProt P12883)
inactive: [1] 0.545 | ibrutinib 0.131

NCLN isoform 2 (UniProt Q969V3)
inactive: [14] -0.132 | [15] -0.175 | [9] 0.349 | [16] 0.206 | [2] 0.024 | [3] -0.182 | IRAK-1-4 Inhibitor I 0.13 | ralimetinib -0.048 | [10] 0.047 | [4] 0.091 | [12] -0.102

NACA2 (UniProt Q9H009)
inactive: [9] -0.058 | IRAK-1-4 Inhibitor I -0.022 | ralimetinib -0.034 | [10] -0.011 | [13] 0.03 | [12] 0.021

NCKAP5L (UniProt Q9HCH0)
inactive: erlotinib 0 | [5] 0.121 | [9] 0.01 | [2] -0.035 | [3] -0.03 | IRAK-1-4 Inhibitor I 0.031 | [6] -0.221 | ralimetinib -0.008 | [10] -0.036 | [7] -0.053 | [11] 0.141 | [13] 0.119 | [4] 0.043 | [12] -0.01 | [8] -0.122

MYO1G (UniProt B0I1T2)
inactive: erlotinib 0.052 | [5] 0.012 | [1] -0.114 | [2] -0.109 | [3] -0.102 | ibrutinib 0.13 | [6] 0.149 | [7] -0.069 | [11] -0.105 | [13] 0.005 | [4] -0.138 | [8] 0.003

NAP1L4 (UniProt C9J6D1)
inactive: [6] 0.04 | [8] -0.141

N4BP3 (UniProt O15049)
inactive: erlotinib -0.038 | [5] 0.056 | [1] -0.107 | ibrutinib 0.039 | [6] -0.055 | [7] 0.056 | [11] 0.055 | [8] 0.038

NASP isoform 2 (UniProt P49321)
inactive: [1] -0.135 | ibrutinib -0.226 | [6] -0.001 | [8] 0
